Patent US20100266569A1, “PROSTATIC ACID PHOSPHATASE FOR THE TREATMENT OF PAIN” (priority 2007, published 2010)

What was measured:
[1] = tested on: wild-type C57BL/6 male mice; experiment: Noxious thermal sensitivity, Hargreaves method (paw withdrawal latency to radiant heat) after i.t. injection; assay type: in vivo, mouse; conditions: single i.t. injection, highest dose
Experimental: Behavior. C57BL/6 male mice, 2-3 months old, were purchased from Jackson Laboratories (Bar Harbor, Maine, United States of America) for all behavioral experiments involving PAP protein injections. All mice were acclimated to the testing room, equipment and experimenter for one day before behavioral testing. The experimenter was blind to genotype and drug treatment during behavioral testing.
Thermal sensitivity was measured by heating one hindpaw with a Plantar Test apparatus (IITC) following the Hargreaves method (Hargreaves et al., 1988). The radiant heat source intensity was calibrated so that a paw withdrawal reflex was evoked in ˜10 seconds, on average, in wild-type C57BL/6 mice. Cutoff time was 20 s. One measurement was taken from each paw per day to determine paw withdrawal latency. To perform the tail immersion assay, mice were gently restrained in a towel and the distal one-third of the tail was immersed in 46.5° C. water. Latency to withdrawal the tail was measured once per mouse. Mechanical sensitivity was measured using semi-rigid tips attached to an Electronic von Frey apparatus (IITC) as described elsewhere (Cunha et al., 2004; Inoue et al., 2004). Three measurements were taken from each paw (separated at 5 min. intervals) then averaged to determine paw withdrawal threshold in grams. […]

[2] = tested on: wild-type C57BL/6 male mice; conditions: mouse, in vivo
Source text: Signs of immune and microglial activation can be monitored using molecular markers.

[3] = tested on: wild-type C57BL/6 male mice; conditions: 50 μg, i.t., single injection, mice (Grant et al., 1995); cited from earlier work

In the case of `CN1CC[C@]23c4c5ccc(O)c4O[C@H]2[C@@H](O)C=C[C@H]3[C@H]1C5.O=S(=O)(O)O` [morphine, morphine sulfate], the duration of antinociception [1] was 5 h, the “mice paralyzed and displaying a Straub tail” value [2] was “three” and the mice that died [2] was “two”. For the same compound, the “duration of morphine antinociception, previous reports” value [3] was 4.6 ± 1.0 h.
